Results as given in article PMC4792956.
Results are given in words; binding and its absence hold for the method and conditions named. In cells and extracts the contact can be indirect. These calls come from enrichment with a bait or labelling near it, and not all partners need be listed. A no says only that the protein was not detected with the bait. Where a sequence is shown, tags or fusion partners need not be part of it.

Chains of the proteins cited; added tags and fusions are not shown.
UniProt Q9V3Z6: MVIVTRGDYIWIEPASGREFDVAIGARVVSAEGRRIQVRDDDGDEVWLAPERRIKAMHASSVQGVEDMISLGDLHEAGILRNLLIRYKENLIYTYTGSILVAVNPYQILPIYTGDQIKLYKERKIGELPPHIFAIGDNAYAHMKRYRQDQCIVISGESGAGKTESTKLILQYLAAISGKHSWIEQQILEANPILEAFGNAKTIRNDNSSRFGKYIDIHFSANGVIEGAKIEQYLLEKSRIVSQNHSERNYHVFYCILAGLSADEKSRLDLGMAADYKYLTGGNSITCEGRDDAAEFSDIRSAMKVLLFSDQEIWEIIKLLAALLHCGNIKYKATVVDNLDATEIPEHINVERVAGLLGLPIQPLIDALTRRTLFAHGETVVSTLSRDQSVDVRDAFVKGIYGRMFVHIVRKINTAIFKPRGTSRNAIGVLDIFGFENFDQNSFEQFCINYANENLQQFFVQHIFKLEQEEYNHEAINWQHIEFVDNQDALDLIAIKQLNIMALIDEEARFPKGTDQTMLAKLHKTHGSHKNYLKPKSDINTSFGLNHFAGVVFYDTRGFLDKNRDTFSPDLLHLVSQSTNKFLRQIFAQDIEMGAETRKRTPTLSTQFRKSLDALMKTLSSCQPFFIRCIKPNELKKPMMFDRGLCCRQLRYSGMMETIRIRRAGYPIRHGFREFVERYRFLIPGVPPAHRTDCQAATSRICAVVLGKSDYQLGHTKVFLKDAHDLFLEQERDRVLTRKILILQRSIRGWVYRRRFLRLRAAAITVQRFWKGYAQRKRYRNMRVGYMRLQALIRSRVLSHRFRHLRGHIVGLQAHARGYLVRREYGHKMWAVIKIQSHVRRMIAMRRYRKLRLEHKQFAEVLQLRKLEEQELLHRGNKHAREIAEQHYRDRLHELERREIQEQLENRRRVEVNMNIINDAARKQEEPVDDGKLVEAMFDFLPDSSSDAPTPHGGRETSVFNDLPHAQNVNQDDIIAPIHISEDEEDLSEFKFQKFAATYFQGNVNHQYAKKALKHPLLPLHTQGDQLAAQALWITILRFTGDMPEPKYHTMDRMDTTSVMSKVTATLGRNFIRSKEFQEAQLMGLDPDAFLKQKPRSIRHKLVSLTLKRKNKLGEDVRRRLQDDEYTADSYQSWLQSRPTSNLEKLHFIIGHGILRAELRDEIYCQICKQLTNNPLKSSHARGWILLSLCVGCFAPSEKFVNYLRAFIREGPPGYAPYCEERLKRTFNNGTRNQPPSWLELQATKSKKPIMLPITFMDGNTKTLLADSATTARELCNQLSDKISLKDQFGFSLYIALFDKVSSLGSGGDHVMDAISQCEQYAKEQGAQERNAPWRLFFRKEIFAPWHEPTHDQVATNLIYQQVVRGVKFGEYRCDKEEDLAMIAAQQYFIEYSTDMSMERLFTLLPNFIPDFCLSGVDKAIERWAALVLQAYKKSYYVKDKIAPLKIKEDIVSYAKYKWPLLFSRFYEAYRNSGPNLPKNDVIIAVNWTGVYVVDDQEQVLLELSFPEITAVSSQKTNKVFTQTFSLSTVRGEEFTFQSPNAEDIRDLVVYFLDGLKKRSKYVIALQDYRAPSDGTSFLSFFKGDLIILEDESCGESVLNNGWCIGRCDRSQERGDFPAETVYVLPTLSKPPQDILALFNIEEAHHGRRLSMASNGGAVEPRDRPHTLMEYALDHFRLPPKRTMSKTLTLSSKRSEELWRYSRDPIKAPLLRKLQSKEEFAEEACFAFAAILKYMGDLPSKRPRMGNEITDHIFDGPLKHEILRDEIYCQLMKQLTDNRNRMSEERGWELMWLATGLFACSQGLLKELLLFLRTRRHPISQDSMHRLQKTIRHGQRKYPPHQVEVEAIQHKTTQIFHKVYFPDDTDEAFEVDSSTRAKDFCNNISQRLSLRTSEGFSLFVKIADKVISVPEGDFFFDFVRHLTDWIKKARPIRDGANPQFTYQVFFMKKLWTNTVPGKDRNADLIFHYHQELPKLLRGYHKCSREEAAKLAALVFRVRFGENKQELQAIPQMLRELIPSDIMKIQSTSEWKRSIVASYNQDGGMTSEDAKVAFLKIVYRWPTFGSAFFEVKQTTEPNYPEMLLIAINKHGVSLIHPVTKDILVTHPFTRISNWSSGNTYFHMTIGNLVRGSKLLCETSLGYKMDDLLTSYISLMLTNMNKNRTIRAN

Target: T1, HA3x-tagged DARK (UniProt Q7KLI1)
T1 sequence: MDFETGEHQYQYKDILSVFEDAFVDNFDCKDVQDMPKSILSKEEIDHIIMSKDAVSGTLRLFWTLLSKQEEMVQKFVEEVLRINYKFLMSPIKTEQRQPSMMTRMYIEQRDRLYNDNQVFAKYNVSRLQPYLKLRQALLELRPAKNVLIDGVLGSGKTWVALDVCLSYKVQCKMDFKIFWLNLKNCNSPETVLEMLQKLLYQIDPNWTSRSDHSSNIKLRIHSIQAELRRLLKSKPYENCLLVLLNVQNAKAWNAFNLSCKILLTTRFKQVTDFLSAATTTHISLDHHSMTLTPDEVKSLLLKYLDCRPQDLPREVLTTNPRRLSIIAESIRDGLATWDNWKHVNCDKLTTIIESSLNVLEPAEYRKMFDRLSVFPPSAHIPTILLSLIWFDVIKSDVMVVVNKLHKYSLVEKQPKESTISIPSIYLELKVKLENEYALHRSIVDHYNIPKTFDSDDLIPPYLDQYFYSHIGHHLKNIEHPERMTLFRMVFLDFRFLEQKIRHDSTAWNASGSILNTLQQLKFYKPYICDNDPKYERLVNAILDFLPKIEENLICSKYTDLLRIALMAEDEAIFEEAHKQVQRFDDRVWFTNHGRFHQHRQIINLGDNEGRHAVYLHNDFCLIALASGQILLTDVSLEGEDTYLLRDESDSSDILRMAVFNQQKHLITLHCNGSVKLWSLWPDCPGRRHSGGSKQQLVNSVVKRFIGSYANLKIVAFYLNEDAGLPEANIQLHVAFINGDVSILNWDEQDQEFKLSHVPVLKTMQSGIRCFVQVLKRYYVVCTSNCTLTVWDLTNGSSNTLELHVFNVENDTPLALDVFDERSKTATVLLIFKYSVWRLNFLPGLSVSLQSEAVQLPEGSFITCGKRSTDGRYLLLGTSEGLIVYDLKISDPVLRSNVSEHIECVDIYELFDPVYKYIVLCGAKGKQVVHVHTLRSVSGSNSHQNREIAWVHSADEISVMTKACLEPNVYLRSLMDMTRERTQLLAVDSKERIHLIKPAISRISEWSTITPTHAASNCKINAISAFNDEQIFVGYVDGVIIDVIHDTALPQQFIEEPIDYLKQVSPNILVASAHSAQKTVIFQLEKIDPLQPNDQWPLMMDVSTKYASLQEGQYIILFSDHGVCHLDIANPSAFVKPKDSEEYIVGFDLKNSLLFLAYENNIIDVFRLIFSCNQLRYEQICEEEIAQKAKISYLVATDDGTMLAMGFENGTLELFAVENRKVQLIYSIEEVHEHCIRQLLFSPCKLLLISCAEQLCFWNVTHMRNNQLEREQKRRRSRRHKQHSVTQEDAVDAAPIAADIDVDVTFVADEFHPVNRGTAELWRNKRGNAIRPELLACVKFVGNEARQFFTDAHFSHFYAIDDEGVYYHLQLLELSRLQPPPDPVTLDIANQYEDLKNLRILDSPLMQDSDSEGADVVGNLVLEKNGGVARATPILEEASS
Test: affinity purification with mass spectrometry; HA3x-tagged baits stably expressed in Drosophila S2 cells; large-scale affinity purification on α-HA resin, mass spectrometric analysis; minimum score of two unique peptides

binding: no binding
Sequence: CRINKLED (CK), endogenous in S2 cells (from UniProt Q9V3Z6 1-2167)
